Results are given in words; binding and its absence hold for the method and conditions named. A result given as binding can be weak or reduced; the word gives no strength.
Biological target: H2 domain of GacS HK, cyaAT25 two-hybrid fusion (Pseudomonas aeruginosa) (UniProt G3XD98)
Experiment: two-hybrid; bacterial two-hybrid, cyaAT18 (pUT18C) and cyaAT25 (pKT25) fusions co-transformed in E. coli BTH101; blue colonies on X-gal/IPTG plates after 24 hours at 30°C and β-galactosidase activity in Miller units after 16 hours of growth

By UniProt entry, the sequences of proteins in these tests, tags left out. Where a name states a change or a piece, a line headed by the entry shows the natural chain unless it says otherwise.
UniProt Q9HX42: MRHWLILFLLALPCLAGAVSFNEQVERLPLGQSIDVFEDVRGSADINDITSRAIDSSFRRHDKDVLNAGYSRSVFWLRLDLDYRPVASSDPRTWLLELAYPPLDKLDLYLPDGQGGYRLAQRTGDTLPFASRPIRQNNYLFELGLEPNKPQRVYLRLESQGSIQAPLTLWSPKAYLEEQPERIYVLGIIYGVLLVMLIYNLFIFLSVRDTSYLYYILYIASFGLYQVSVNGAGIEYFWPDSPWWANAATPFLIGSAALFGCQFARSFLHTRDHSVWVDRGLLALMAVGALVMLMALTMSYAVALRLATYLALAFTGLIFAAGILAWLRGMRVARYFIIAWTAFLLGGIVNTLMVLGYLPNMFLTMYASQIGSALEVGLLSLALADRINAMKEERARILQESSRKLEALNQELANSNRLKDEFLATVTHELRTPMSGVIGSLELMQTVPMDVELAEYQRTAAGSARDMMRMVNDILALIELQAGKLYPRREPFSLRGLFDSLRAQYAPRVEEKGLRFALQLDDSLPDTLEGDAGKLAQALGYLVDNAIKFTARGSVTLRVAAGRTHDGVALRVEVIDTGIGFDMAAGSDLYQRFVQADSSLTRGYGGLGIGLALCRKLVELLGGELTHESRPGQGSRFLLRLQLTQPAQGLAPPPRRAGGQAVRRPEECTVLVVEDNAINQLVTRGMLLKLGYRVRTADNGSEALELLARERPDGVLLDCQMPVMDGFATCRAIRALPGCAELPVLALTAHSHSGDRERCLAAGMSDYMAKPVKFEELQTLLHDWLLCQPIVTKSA

Substance: D1 domain of LadS HK, cyaAT18 two-hybrid fusion (from UniProt Q9HX42) (domain or fragment)
- binding: binds weakly
